Test results: ChEMBL document CHEMBL1142575, “New colchicinoids from a native Jordanian meadow saffron, colchicum brachyphyllum: isolation of the first naturally occurring dextrorotatory colchicinoid” (J Nat Prod, 2005)

Key:
[1] = test system: SF-268; experiment: cells; assay type: functional, cell-based; settings: Homo sapiens, SF-268, 72 h
[2] = test system: MCF7; experiment: Cytotoxicity against human MCF7 after 3 days by SRB assay; assay type: functional, cell-based; settings: MCF7, 72 h
[3] = test system: Mycolicibacterium smegmatis; experiment: Antimicrobial activity against Mycobacterium smegmatis after 3 days; assay type: functional; settings: 72 h
[4] = test system: Micrococcus luteus; experiment: Antimicrobial activity against Micrococcus luteus after 3 days; assay type: functional; settings: 72 h
[5] = test system: Saccharomyces cerevisiae; experiment: Antimicrobial activity against Saccharomyces cerevisiae after 3 days; assay type: functional; settings: 72 h
[6] = test system: NCI-H460; experiment: Cytotoxicity against human H460 after 3 days by SRB assay; assay type: functional, cell-based; settings: NCI-H460, 72 h
[7] = test system: Aspergillus niger; experiment: Antimicrobial activity against Aspergillus niger after 3 days; assay type: functional; settings: 72 h

In the case of `COc1c(O)cc2c(c1OC)-c1ccc(OC)c(=O)cc1[C@@H](NC(C)=O)CC2` [3-DESMETHYLCOLCHICIN], the EC50 [1] is reported as 280 nM, the EC50 [2] is reported as 180 nM and the MIC [3] is reported as over 500 µg/mL. The MIC [4] was over 500 µg/mL, the MIC [5] was over 500 µg/mL and the EC50 [6] was 510 nM. The MIC [7] was over 500 µg/mL.
